Data source: PubChem BioAssay AID504764 (Drosophila RNAi Screening Center, 2011)
Assay: 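Knock-downs that raise or lower a Notch target reporter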 (primary screen). Cell system: Drosophila Kc167 cells. Knock-down reagent: long dsRNA against Drosophila genes. Timing: about 5 days (4 days dsRNA, then 24 h after transfection). Treatment: transfection of constitutively active membrane-tethered Notch lacking the extracellular domain, read 24 h later. Measured: 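Firefly luciferase from an E(spl)m3 reporter with active Notch, plus control-promoter and uninduced reporter wells for normalisation; unnormalised counts, duplicate wells a and b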. Direction: induced reporter light, run 1, well a and induced reporter light, run 1, well b: higher = more light from the Notch target reporter with active Notch; control promoter light, run 1, well a and control promoter light, run 1, well b: higher = more light from the viral control promoter (cell number, transfection, viability); uninduced reporter light, run 1, well a: higher = more light from the Notch target reporter without active Notch. Call rule: 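Hit if the duplicate-averaged log2 ratio of induced to control-promoter light gives a plate-wise z beyond ±2, or induced to uninduced beyond ±1.8; weak-control or discordant-duplicate wells dropped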. Calls: active = modifier hit (raised or lowered Notch signal); inactive = not a hit.
The screen tested about 22,000 reagents; shown is a random part of those with a known target gene and a result. Of all reagents, 403 (1.9%) are marked active. 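Unnormalised raw counts per well; ratio z-scores behind the hit calls and whether each hit raises or lowers signal are not deposited.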 Reagents against one gene are numbered here. Names joined by + are all predicted targets of the reagent. Not given: the amount of reagent.

target | reagent no. | induced reporter light, run 1, well a | induced reporter light, run 1, well b | control promoter light, run 1, well a | control promoter light, run 1, well b | uninduced reporter light, run 1, well a | outcome
Es2 | 1 | 2.04e5 | 1.71e5 | 2.42e5 | 2.78e5 | 12885 | inactive
Jhbp13 | 1 | 2.01e5 | 2.10e5 | 1.79e5 | 1.66e5 | 16625 | inactive
CG30083 | 1 | 1.97e5 | 1.67e5 | 2.93e5 | 2.35e5 | 14190 | inactive
CG12744 | 1 | 2.19e5 | 1.77e5 | 1.42e5 | 1.81e5 | 13765 | inactive
ush | 1 | 1.78e5 | 1.50e5 | 1.89e5 | 1.73e5 | 15470 | inactive
CG34125 | 1 | 46465 | 50535 | 30855 | 25860 | 4850 | inactive
nudC | 1 | 1.05e5 | 1.11e5 | 1.15e5 | 93470 | 6855 | inactive
nudC | 2 | 1.59e5 | 1.57e5 | 1.79e5 | 1.79e5 | 11860 | inactive
CG7741 | 1 | 1.22e5 | 1.50e5 | 2.48e5 | 2.11e5 | 11220 | active
pnr | 1 | 2.09e5 | 2.61e5 | 3.10e5 | 3.01e5 | 17425 | inactive
CG32040 | 1 | 1.60e5 | 1.41e5 | 1.32e5 | 1.41e5 | 11645 | inactive
CG14333 (retired record) | 1 | 1.74e5 | 1.93e5 | 1.92e5 | 2.01e5 | 16725 | inactive
CG14333 (retired record) | 2 | 1.66e5 | 1.73e5 | 2.32e5 | 2.33e5 | 15215 | inactive
CG3748 | 1 | 1.52e5 | 2.24e5 | 1.21e5 | 1.46e5 | 24655 | inactive
CG14990 | 1 | 1.54e5 | 1.34e5 | 1.96e5 | 2.17e5 | 9715 | inactive
par-6 | 1 | 1.05e5 | 93440 | 97675 | 40535 | 8330 | inactive
TwdlY | 1 | 1.01e5 | 83985 | 89095 | 85365 | 7475 | inactive
CG5493 + CG5327 | 1 | 1.12e5 | 99040 | 1.48e5 | 99025 | 9360 | inactive
Sodh1 | 1 | 1.56e5 | 1.24e5 | 1.03e5 | 96865 | 11860 | inactive
RpS3 | 1 | 14550 | 14970 | 12130 | 14445 | 828 | inactive
PolA1 | 1 | 92920 | 1.20e5 | 1.29e5 | 1.63e5 | 10170 | inactive
slp2 | 1 | 47245 | 46280 | 59130 | 48095 | 3520 | inactive
CG13458 | 1 | 1.15e5 | 1.07e5 | 65080 | 71215 | 10155 | inactive
v | 1 | 1.85e5 | 1.46e5 | 2.01e5 | 2.14e5 | 12525 | inactive
CG7458 | 1 | 1.75e5 | 1.47e5 | 93780 | 1.01e5 | 7740 | inactive
FucT6 | 1 | 1.11e5 | 1.16e5 | 1.39e5 | 1.61e5 | 7455 | inactive
CG9875 | 1 | 2.17e5 | 1.83e5 | 1.91e5 | 1.55e5 | 15790 | inactive
Ccz1 | 1 | 1.26e5 | 1.21e5 | 2.00e5 | 1.84e5 | 6545 | inactive
ana2 | 1 | 1.31e5 | 1.09e5 | 88250 | 89925 | 8742 | inactive
Smox | 1 | 79455 | 89435 | 1.80e5 | 1.72e5 | 8290 | inactive
insv | 1 | 1.25e5 | 1.08e5 | 1.22e5 | 89215 | 8865 | inactive
CG14464 | 1 | 92695 | 1.22e5 | 1.83e5 | 1.56e5 | 3880 | active
ApepP | 1 | 3.07e5 | 2.88e5 | 3.36e5 | 3.21e5 | 22070 | inactive
Cyt-b5-r | 1 | 1.67e5 | 1.76e5 | 1.85e5 | 2.03e5 | 11935 | inactive
Eglp4 | 1 | 1.86e5 | 1.46e5 | 1.61e5 | 1.59e5 | 11590 | inactive
CG15642 | 1 | 56445 | 60535 | 70685 | 53635 | 8350 | inactive
CG17404 | 1 | 67785 | 79660 | 80510 | 65435 | 4965 | inactive
CG14418 | 1 | 21205 | 22878 | 33695 | 33085 | 3770 | inactive
PhKgamma | 1 | 2.11e5 | 2.15e5 | 2.29e5 | 2.33e5 | 14150 | inactive
Cmtr1 | 1 | 1.33e5 | 1.32e5 | 2.90e5 | 2.20e5 | 11485 | inactive
CG13733 | 1 | 2.21e5 | 2.01e5 | 2.67e5 | 2.03e5 | 10192 | inactive
CG6310 | 1 | 1.21e5 | 1.12e5 | 1.81e5 | 1.21e5 | 6945 | inactive
Coop | 1 | 2.05e5 | 1.62e5 | 1.35e5 | 1.69e5 | 15500 | inactive
Sps2 | 1 | 1.22e5 | 1.58e5 | 63125 | 84650 | 17660 | inactive
Uba5 | 1 | 1.32e5 | 1.10e5 | 2.41e5 | 1.99e5 | 8940 | inactive
CG10005 | 1 | 1.03e5 | 73425 | 72520 | 41730 | 5150 | inactive
CG34281 | 1 | 2.45e5 | 2.39e5 | 3.03e5 | 3.08e5 | 23415 | inactive
udd | 1 | 2.92e5 | 2.78e5 | 3.08e5 | 2.78e5 | 24940 | inactive
CG30379 | 1 | 74790 | 89475 | 1.09e5 | 1.06e5 | 5280 | inactive
wisp | 1 | 93210 | 1.11e5 | 81540 | 86590 | 10200 | inactive
osp | 1 | 1.33e5 | 95475 | 1.06e5 | 1.13e5 | 9975 | inactive
osp | 2 | 1.39e5 | 1.90e5 | 1.14e5 | 1.07e5 | 13520 | inactive
CG32264 | 1 | 7545 | 7680 | 9165 | 10110 | 5055 | inactive
CG32264 | 2 | 1.26e5 | 1.50e5 | 1.22e5 | 1.33e5 | 4940 | inactive
CG32264 | 3 | 1.55e5 | 1.55e5 | 1.03e5 | 41655 | 12350 | inactive
CG32264 | 4 | 1.22e5 | 1.59e5 | 1.83e5 | 1.64e5 | 6030 | inactive
CG32264 | 5 | 13830 | 15100 | 21945 | 21030 | 3350 | inactive
CG7488 | 1 | 3.22e5 | 3.39e5 | 2.82e5 | 2.83e5 | 25080 | inactive
CG34135 + Nasp | 1 | 67935 | 70735 | 54395 | 48835 | 4795 | inactive
CG7016 | 1 | 1.57e5 | 1.82e5 | 1.94e5 | 1.91e5 | 14935 | inactive
CG12605 | 1 | 1.17e5 | 97960 | 1.43e5 | 1.23e5 | 6070 | inactive
PolD1 | 1 | 2.04e5 | 1.72e5 | 2.71e5 | 2.07e5 | 7585 | inactive
CG30355 | 1 | – | – | – | – | – | inactive
toe | 1 | 2.29e5 | 2.51e5 | 1.90e5 | 1.72e5 | 14465 | active
toe | 2 | 81020 | 78795 | 71120 | 81100 | 8445 | inactive
